Results from paper PMC3387237.

Amino acid sequences for entries named in this document (tags omitted). A change or cut given only in a name is not applied to a line headed by its entry.
UniProt O55234: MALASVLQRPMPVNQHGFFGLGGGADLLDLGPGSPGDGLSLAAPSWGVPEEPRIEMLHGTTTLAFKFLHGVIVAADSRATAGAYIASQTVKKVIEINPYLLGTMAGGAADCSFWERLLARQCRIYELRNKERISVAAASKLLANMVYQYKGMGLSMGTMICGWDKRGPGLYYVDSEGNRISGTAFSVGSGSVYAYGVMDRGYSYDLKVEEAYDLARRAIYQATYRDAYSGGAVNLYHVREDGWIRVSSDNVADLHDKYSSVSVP
UniProt P28063: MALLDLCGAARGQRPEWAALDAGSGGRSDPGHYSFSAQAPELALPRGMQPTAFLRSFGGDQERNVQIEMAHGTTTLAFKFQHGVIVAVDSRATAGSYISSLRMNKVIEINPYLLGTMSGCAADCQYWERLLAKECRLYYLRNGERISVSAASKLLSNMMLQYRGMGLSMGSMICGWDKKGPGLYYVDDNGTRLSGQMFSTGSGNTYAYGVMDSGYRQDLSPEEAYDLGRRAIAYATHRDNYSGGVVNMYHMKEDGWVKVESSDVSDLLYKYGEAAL

B1: proteasome subunit β2 (protein, UniProt P70195 44-277)
chain: TTIAGVVYKDGIVLGADTRATEGMVVADKNCSKIHFISPNIYCCGAGTAADTDMTTQLISSNLELHSLTTGRLPRVVTANRMLKQMLFRYQGYIGAALVLGGVDVTGPHLYSIYPHGSTDKLPYVTMGSGSLAAMAVFEDKFRPDMEEEEAKKLVSEAIAAGIFNDLGSGSNIDLCVISKSKLDFLRPFSVPNKKGTRLGRYRCEKGTTAVLTEKVTPLEIEVLEETVQTMDTS
B2: LMP2 (protein, UniProt P28076 21-219)
chain: TTIMAVEFDGGVVVGSDSRVSAGTAVVNRVFDKLSPLHQRIFCALSGSAADAQAIADMAAYQLELHGLELEEPPLVLAAANVVKNISYKYREDLLAHLIVAGWDQREGGQVYGTMGGMLIRQPFTIGGSGSSYIYGYVDAAYKPGMTPEECRRFTTNAITLAMNRDGSSGGVIYLVTITAAGVDHRVILGDELPKFYDE
B3: MECL-1 (protein, UniProt O35955 40-273)
chain: TTIAGLVFRDGVILGADTRATNDSVVADKSCEKIHFIAPKIYCCGAGVAADTEMTTRMAASKMELHALSTGREPRVATVTRILRQTLFRYQGHVGASLVVGGVDLNGPQLYEVHPHGSYSRLPFTALGSGQGAAVALLEDRFQPNMTLEAAQELLVEAITAGILSDLGSGGNVDACVITAGGAKLQRALSTPTEPVQRAGRYRFAPGTTPVLTREVRPLTLELLEETVQAMEVE

Key:
[1] = target: Flag-tagged full-length β5 (mouse) (UniProt O55234); assay: co-IP; β5-Flag over-expressed in wild type Mefs (endogenous LMP7 present), IFNγ stimulation; anti-Flag precipitation, immunoblot (Fig. S1B)
[2] = target: Flag-tagged full-length β5 (mouse) (UniProt O55234); assay: co-IP; lysates (600 µg protein) of retrovirally transduced lmp7−/− Mefs, unstimulated or IFNγ for 4 days; anti-Flag M2 affinity gel, 4°C over night; 50 mM TrisHCl pH 7.4, 150 mM NaCl, 1 mM EDTA, 0.5% Igepal; washed with TBS; input, supernatant and precipitate read by two-colour fluorescent immunoblot
[3] = target: Flag-tagged full-length LMP7 (mouse) (UniProt P28063); assay: as above

| Binder | binding [1] | binding [2] | binding [3] |
| --- | --- | --- | --- |
| B1 | binds | binds |  |
| B2 |  |  | binds |
| B3 |  |  | binds |

Results are given in words; binding and its absence hold for the method and conditions named. Binding seen in cells or lysates may run through a third protein. A result given as binding can be weak or reduced; the word gives no strength.
